Results deposited as PubChem BioAssay AID1259306 (Sanger Institute, 2017).

Aim: 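Find kinases whose loss reduces colorectal cancer cell viability or aids targeted drugs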 (primary screen)
System: human SNU-C5 colorectal cancer cells
Reagents: siRNA pool against human genes
Treatment: DMSO vehicle alone, or one anchor drug: BYL719 at 1 µM, cetuximab at 5 µg/ml or trametinib at 10 nM, given 24 h into the assay
Measurement: 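Viability versus non-targeting pool averaged across replicates, given as fraction and robust z-score, and synergy scores for BYL719, cetuximab or trametinib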
Direction: robust z-score, knock-down alone: higher = more viable cells
Hit rule: 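Called essential when the robust z-score for knock-down alone is below -3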
Calls: active = essential (knock-down alone); inactive = no change alone
Here is a random part of 794 deposited reagents. 11 of all reagents (1.4%) count as active. 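Calls reflect knock-down alone; synergy scores play no part, so knock-downs synergising with a drug can be called no change.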 Entries without a mark were called inactive. Further read-outs or replicates are left out here. Not given: the amount of reagent, the time to read-out.

gene,"robust z-score, knock-down alone"
MERTK,0.392
TRIB1,-0.659
MAP4K3,-1.84
STK3,0.989
DGKH,0.989
CKMT1B,0.989
GOLGA5,0.468
MINK1,0.182
ERBB3,0.0217
NME3,0.847
SF3B1,-2.55
CPNE3,-0.142
PRKG2,0.989
BRD3,0.989
KSR1,-0.123
CDK14,-0.955
CSNK1E,-0.366
PDGFRB,-1.06
RPS6KA5,0.7
GRK2,0.352
CHUK,0.184
DLG1,0.989
CAMKV,0.00167
NRK,0.784
COASY,-3.59 (active)
CSF1R,-1.64

Targets listed so far whose target name begins with D or d:
gene,"robust z-score, knock-down alone"
DGKH,0.989
DLG1,0.989

Additional results:
gene,"robust z-score, knock-down alone"
ADCK2,0.261
CKB,0.505
RAF1,0.989
MAPK10,0.989
PIK3CG,-0.594
CRIM1,0.323
MAPK1,0.194
PFKFB1,-2.31
LMTK2,-0.0491
GRK3,0.914
MUSK,-0.394
CLK3,-0.409
STAG2,-0.211
LMTK3,-0.867
VRK3,0.172
DYRK2,0.0673
FCSK,0.656
CDC73,-1.49
NEK6,0.989
CKS1B,0.989
TSSK3,0.204
AAK1,-0.34
MAP3K6,0.302
ADGRL2,0.625
